These are yes or no findings as the source states them, for the method shown. Binding seen in cells or lysates may run through a third protein. For some assays here: A result given as binding can be weak or reduced; the word gives no strength.
Legend:
[1] = target: Atrophin (Drosophila (endogenous in S2 cells)); test: co-IP; endogenous proteins of S2 cells (10^7 cells per IP); lysate pretreated with micrococcal nuclease (25°C, 5 min); IP with Atro antibody, blot with Trl antibody; IgG as control
[2] = target: Atrophin (Drosophila (endogenous in S2 cells)); test: condition: only standard coIP conditions, lysate not pretreated with micrococcal nuclease; co-IP; endogenous proteins of S2 cells; standard coIP conditions, without pretreatment with micrococcal nuclease

binding [1]: binds | binding [2]: no binding
B1: Trithorax-like (protein, UniProt Q08605 1-582)
chain: MSLPMNSLYSLTWGDYGTSLVSAIQLLRCHGDLVDCTLAAGGRSFPAHKIVLCAASPFLLDLLKNTPCKHPVVMLAGVNANDLEALLEFVYRGEVSVDHAQLPSLLQAAQCLNIQGLAPQTVTKDDYTTHSIQLQHMIPQHHDQDQLIATIATAPQQTVHAQVVEDIHHQGQILQATTQTNAAGQQQTIVTTDAAKHDQAVIQAFLPARKRKPRVKKMSPTAPKISKVEGMDTIMGTPTSSHGSGSVQQVLGENGAEGQLLSSTPIIKSEGQKVETIVTMDPNNMIPVTSANAATGEITPAQGATGSSGGNTSGVLSTPKAKRAKHPPGTEKPRSRSQSEQPATCPICYAVIRQSRNLRRHLELRHFAKPGVKKEKKTTSGKKSSSGSSGSGSGALSSSGSVPQVQTVQSLHTLQGVQVKKDPDAQQQQQQQQQQQQQQQQQAMTVSGATGGQVQQQVQQVQQQVQQQQQQQQQQQQQLQHHQIIDSSGNITTATTSAQAAAAAQQQAAGQQQQLVAQSDGSESGAPLSIAQVQTLQGHQIIGNLNQVNITDFQQQQPQQQQQQQQQQQQQQQQQQQTQQTL

Source: PMC5409829
